Results as given in the supplement of paper PMC10849652.
The other results are listed elsewhere or left out.

By UniProt entry, the sequences of proteins in these tests, tags left out. Where a name states a change or a piece, a line headed by the entry shows the natural chain unless it says otherwise.
UniProt Q9Y277: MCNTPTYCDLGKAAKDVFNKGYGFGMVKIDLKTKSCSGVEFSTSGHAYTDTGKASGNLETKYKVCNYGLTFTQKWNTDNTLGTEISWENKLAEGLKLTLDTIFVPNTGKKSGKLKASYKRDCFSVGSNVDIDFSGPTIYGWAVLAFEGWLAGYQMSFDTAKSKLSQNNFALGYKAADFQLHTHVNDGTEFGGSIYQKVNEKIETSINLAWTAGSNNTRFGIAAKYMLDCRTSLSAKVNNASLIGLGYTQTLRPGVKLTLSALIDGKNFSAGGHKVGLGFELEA
UniProt Q9NYU1: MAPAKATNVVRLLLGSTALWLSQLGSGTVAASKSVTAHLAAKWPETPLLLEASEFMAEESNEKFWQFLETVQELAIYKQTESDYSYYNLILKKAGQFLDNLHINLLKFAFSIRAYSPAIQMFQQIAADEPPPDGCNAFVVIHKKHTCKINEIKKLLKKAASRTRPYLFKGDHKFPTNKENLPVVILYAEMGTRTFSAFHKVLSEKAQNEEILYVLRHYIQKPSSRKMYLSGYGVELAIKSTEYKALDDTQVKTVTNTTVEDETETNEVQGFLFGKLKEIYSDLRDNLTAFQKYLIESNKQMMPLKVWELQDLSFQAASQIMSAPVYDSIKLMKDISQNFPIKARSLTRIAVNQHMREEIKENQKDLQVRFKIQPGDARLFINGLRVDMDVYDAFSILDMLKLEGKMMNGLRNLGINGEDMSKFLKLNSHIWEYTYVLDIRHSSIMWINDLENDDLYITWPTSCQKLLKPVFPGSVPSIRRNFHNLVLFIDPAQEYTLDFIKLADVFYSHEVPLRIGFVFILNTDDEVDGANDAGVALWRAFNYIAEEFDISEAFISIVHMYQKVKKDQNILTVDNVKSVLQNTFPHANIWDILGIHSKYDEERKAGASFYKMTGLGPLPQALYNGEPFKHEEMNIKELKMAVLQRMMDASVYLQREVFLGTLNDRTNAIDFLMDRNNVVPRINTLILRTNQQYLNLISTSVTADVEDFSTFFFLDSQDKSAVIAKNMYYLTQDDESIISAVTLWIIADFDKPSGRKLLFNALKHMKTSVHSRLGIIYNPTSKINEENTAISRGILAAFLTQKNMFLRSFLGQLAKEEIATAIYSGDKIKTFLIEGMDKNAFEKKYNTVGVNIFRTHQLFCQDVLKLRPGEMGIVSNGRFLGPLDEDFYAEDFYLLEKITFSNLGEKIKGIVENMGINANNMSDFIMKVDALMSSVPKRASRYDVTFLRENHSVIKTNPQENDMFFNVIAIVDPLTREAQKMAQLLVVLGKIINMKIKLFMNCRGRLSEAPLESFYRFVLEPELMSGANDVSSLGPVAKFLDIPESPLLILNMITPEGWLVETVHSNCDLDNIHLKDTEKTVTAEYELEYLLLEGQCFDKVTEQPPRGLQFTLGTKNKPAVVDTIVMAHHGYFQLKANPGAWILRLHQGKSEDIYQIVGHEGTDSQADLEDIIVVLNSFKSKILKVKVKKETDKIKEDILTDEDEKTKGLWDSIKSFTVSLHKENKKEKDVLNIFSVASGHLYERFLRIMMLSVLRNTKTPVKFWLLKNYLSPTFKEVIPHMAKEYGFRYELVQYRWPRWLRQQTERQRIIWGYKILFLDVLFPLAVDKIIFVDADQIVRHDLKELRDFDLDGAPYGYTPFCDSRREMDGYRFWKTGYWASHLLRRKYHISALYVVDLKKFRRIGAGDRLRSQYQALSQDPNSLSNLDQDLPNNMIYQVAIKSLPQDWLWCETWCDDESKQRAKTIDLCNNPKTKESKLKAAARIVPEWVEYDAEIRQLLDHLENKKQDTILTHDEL
UniProt Q68DE3: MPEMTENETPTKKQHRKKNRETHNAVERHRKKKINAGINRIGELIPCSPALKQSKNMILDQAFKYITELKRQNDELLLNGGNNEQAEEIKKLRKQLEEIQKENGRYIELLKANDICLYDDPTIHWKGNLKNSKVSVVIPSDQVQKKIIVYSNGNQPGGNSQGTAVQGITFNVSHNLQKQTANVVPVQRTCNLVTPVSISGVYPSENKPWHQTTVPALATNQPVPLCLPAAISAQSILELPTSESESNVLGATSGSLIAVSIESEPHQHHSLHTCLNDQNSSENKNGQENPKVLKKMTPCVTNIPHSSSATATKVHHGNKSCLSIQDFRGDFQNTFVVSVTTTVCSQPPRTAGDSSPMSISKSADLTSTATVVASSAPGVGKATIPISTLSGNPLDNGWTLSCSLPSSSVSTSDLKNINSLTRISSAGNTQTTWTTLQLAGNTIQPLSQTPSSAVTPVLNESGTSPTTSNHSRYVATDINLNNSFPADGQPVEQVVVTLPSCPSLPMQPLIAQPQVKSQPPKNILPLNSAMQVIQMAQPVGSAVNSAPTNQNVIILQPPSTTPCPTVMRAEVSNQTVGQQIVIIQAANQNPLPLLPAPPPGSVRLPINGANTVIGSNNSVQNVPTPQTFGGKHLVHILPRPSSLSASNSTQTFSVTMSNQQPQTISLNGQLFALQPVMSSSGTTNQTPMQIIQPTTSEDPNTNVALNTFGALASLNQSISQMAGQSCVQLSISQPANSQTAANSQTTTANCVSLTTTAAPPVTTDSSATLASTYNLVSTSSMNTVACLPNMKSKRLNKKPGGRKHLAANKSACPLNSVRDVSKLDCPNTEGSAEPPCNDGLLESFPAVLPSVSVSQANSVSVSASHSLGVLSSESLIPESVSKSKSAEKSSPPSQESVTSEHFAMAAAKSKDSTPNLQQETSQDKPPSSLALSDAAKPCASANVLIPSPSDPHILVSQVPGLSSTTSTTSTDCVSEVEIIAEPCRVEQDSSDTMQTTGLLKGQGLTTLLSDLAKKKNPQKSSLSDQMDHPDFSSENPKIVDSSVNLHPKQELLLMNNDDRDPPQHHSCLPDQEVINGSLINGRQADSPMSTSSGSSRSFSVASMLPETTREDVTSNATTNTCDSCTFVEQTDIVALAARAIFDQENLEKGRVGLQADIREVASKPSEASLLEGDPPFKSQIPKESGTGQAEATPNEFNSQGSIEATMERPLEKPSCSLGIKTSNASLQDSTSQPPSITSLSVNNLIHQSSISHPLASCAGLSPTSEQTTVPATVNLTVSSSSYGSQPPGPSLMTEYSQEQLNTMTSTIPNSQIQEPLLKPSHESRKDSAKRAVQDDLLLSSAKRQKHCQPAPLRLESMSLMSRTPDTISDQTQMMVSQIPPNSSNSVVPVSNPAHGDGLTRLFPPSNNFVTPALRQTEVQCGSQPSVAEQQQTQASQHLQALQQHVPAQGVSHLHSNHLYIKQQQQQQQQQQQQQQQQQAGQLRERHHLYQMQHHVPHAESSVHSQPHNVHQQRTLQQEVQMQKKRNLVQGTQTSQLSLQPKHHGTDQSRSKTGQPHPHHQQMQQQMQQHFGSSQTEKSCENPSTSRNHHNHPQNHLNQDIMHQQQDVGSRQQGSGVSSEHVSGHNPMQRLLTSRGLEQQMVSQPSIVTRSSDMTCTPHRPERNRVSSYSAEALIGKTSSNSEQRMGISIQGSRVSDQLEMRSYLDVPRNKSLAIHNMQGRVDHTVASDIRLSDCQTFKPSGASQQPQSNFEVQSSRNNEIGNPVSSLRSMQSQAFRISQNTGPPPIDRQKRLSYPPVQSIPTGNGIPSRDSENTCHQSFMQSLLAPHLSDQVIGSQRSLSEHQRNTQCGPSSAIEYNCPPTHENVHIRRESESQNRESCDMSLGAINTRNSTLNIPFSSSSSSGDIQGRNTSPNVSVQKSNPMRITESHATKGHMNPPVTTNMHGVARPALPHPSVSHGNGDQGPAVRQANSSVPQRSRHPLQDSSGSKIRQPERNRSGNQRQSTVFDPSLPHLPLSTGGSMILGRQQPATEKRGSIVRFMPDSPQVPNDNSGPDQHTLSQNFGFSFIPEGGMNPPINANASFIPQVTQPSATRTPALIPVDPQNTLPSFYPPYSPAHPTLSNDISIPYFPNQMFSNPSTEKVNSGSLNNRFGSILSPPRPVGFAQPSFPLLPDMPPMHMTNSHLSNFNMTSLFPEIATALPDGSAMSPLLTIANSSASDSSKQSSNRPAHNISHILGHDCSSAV
UniProt Q6UW78: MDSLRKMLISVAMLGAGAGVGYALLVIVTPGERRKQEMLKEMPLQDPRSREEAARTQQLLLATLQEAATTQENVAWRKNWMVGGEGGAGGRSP
UniProt Q8TAA9: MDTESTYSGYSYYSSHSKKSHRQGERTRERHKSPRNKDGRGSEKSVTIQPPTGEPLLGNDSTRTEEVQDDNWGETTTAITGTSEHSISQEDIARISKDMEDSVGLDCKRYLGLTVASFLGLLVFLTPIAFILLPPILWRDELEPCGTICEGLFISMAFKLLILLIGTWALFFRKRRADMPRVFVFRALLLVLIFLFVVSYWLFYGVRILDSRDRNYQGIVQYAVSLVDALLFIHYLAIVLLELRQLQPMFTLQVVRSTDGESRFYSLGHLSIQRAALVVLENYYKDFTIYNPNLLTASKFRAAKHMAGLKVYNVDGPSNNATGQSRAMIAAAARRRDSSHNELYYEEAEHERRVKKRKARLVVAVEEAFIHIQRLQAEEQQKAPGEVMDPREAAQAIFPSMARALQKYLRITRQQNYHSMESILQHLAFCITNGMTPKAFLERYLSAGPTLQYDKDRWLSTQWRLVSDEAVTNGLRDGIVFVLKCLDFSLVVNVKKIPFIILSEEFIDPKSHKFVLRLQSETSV
UniProt P22415: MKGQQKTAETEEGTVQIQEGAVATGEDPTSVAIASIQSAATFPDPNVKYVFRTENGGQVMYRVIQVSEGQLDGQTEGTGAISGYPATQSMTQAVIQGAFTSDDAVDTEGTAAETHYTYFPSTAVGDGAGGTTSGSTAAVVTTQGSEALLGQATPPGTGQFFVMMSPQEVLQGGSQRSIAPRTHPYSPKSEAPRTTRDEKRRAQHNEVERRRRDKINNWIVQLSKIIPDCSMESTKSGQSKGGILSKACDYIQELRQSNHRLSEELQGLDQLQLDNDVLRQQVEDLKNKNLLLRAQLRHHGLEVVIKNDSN
UniProt Q70J99: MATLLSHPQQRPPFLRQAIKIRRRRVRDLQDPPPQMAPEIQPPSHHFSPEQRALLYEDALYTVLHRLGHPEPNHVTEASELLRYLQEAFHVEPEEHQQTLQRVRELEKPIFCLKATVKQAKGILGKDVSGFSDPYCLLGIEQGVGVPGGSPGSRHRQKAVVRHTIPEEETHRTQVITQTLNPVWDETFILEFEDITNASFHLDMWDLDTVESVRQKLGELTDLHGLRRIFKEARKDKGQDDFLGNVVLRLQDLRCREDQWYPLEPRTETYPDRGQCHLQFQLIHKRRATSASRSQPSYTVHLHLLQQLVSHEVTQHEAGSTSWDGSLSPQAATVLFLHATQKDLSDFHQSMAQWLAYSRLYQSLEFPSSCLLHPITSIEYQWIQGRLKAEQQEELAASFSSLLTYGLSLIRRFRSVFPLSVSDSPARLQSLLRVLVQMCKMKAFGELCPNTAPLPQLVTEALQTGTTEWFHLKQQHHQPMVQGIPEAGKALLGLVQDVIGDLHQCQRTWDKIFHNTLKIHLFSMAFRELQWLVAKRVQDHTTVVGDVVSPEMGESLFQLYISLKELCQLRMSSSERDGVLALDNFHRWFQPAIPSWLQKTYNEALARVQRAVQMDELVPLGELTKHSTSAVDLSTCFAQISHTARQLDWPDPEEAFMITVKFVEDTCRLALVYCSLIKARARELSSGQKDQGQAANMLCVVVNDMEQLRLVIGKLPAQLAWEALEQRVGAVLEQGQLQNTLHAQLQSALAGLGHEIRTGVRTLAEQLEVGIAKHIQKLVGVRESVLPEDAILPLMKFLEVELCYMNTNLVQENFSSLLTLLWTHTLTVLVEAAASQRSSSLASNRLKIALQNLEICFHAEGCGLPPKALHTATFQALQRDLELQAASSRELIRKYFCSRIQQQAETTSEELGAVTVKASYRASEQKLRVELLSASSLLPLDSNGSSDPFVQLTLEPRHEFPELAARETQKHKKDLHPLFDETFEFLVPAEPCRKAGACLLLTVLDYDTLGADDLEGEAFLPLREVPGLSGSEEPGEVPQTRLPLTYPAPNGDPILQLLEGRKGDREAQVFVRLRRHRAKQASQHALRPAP
UniProt P08670, whole entry, looked up: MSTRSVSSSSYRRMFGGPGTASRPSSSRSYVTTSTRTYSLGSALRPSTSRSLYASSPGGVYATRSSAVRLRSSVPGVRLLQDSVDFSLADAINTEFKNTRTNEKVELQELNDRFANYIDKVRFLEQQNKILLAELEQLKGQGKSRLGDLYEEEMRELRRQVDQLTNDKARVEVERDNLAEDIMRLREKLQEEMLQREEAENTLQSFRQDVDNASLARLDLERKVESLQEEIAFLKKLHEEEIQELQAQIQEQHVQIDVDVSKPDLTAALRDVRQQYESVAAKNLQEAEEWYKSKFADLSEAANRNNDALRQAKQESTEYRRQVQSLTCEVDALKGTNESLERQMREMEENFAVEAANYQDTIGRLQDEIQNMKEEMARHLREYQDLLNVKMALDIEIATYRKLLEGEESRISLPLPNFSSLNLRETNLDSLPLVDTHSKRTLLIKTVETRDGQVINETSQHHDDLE

What was measured:
Test in all cases: log2 fold change, soluble protein after heating vs DMSO (PISA); higher = thermal stabilisation; K562 lysate, 10 uM; active = over 0.2 and 3.5 SD of the protein, either way, in both replicates (recomputed)
[1] = compound: C1=CC=C(C=C1)[C@H](COC2=CC3=C(C=C2)NC(=O)N3)NC(=O)C4=CC=CN(C4=O)CC5=CC(=C(C=C5)F)F
How it was run: (§1)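 Following dounce homogenisation of K562 pellets in PBS pH 7.4 with 1 mM MgCl2, crude extract at 1 mg/mL protein was incubated for 30 min with 10 μM compound. Aliquots were then heated for 3 min over 48°C-58°C and pooled, NP-40 was added to 0.5% at 4°C, and soluble protein was recovered as the supernatant at 21,000xg for 90 min. Channel-sum-equalised TMTpro 16plex LC-MS/MS quantified this protein. Each value, from duplicates, is a log-two fold change in thermal stability relative to solvent controls.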

[2] = compound: CC1=C(SC2=C1C(=N[C@H](C3=NN=C(N32)C)CC(=O)N)C4=CC=C(C=C4)Cl)C
How it was run: as §1

[3] = compound: CC1=C2C(=CC=C1)N=C(N(C2=O)C3=CC=CC=C3C)CN4C=NC5=C(N=CN=C54)N
How it was run: as §1

[4] = compound: Cc1sc2c(c1C)C(c1ccc(Cl)cc1)=N[C@@H](CC(=O)OC(C)(C)C)c1nnc(C)n1-2
How it was run: as §1

[5] = compound: c1ccc([C@@H]2C[C@H]2NC2CCNCC2)cc1
How it was run: as §1

Measured: log2 fold change

USP7 (UniProt H3BND8)
inactive: [1] -0.405 | [2] 0.009

UROD (UniProt H0Y5R6)
inactive: [1] -0.026 | [2] -0.082 | [3] 0.02

UTP20 (UniProt O75691)
inactive: [1] 0.017 | [2] -0.012 | [3] 0.103 | [4] 0.021 | [5] 0.035

USP5 (UniProt F5H571)
inactive: [1] -0.039 | [2] 0.011

UNKL (UniProt E9PDK2)
inactive: [1] -0.025 | [2] 0.09 | [3] 0.249 | [4] 0.022

VAPA (UniProt Q9P0L0)
inactive: [1] -0.031 | [2] -0.035 | [3] 0.003 | [4] 0.124 | [5] 0.085

URM1 isoform 2 (UniProt Q9BTM9)
inactive: [1] 0.116 | [2] -0.003 | [3] 0.072 | [4] -0.011 | [5] 0.094

USP14 (UniProt P54578)
inactive: [1] -0.007 | [2] 0.007 | [3] 0.026 | [4] 0.038 | [5] 0.044

USP13 (UniProt Q92995)
inactive: [1] -0.182 | [2] -0.091 | [3] -0.089 | [4] 0.083 | [5] 0.019

VAT1 (UniProt Q99536)
inactive: [1] 0.036 | [2] -0.025 | [3] -0.02 | [4] -0.022 | [5] -0.006

VDAC3 (UniProt Q9Y277)
inactive: [1] 0.002 | [2] 0.033 | [3] 0.004 | [4] -0.041 | [5] -0.041

UGGT2 (UniProt Q9NYU1)
inactive: [1] -0.042 | [2] 0.058 | [3] -0.001 | [4] -0.025 | [5] 0.047

VIL1 (UniProt P09327)
inactive: [1] -0.057 | [2] -0.234 | [3] 0.074 | [4] -0.098 | [5] -0.143

VASP (UniProt P50552)
inactive: [1] -0.005 | [2] 0.006 | [3] 0.008 | [4] -0.052 | [5] 0.017

USP19 isoform 6 (UniProt O94966)
inactive: [1] -0.007 | [2] 0.061 | [3] -0.001 | [4] 0.001 | [5] 0.029

UROS (UniProt P10746)
inactive: [1] -0.04 | [2] 0.004 | [3] 0.036 | [4] 0.059 | [5] 0.048

UPF2 (UniProt Q9HAU5)
inactive: [1] 0.012 | [2] 0.013 | [3] 0.009 | [4] 0.009 | [5] 0.024

VBP1 (UniProt P61758)
inactive: [1] 0.027 | [2] 0.011 | [3] 0 | [4] -0.018 | [5] 0.016

VCPKMT (UniProt Q9H867)
inactive: [1] 0.011 | [2] 0.056

VCP (UniProt P55072)
inactive: [1] 0.021 | [2] 0.008 | [3] -0.019 | [4] -0.023 | [5] 0.016

USP4 (UniProt Q13107)
inactive: [1] 0.015 | [2] 0.103 | [3] 0.009 | [4] -0.001 | [5] 0.056

USP16 (UniProt Q9Y5T5)
inactive: [1] 0.047 | [2] -0.015 | [3] 0.011 | [4] 0.038 | [5] -0.002

UGCG (UniProt Q16739)
inactive: [1] -0.041 | [2] 0.053 | [3] 0.14 | [4] 0.018

USF3 (UniProt Q68DE3)
inactive: [1] -0.104 | [2] 0.082

USP7 (UniProt Q93009)
inactive: [1] -0.013 | [2] -0.007 | [3] 0.006 | [4] 0.007 | [5] -0.009

ULK3 isoform 4 (UniProt Q6PHR2)
inactive: [1] -0.015 | [2] 0.043 | [3] -0.117 | [4] -0.026 | [5] 0.125

Copied from the listing (four entries):
USP16 (UniProt Q9Y5T5)
inactive: [1] 0.047 | [2] -0.015 | [3] 0.011 | [4] 0.038 | [5] -0.002

UGCG (UniProt Q16739)
inactive: [1] -0.041 | [2] 0.053 | [3] 0.14 | [4] 0.018

USF3 (UniProt Q68DE3)
inactive: [1] -0.104 | [2] 0.082

USP7 (UniProt Q93009)
inactive: [1] -0.013 | [2] -0.007 | [3] 0.006 | [4] 0.007 | [5] -0.009

Further records follow.

UGDH (UniProt O60701)
inactive: [1] 0.003 | [2] 0.001 | [3] -0.004 | [4] -0.056 | [5] 0.026

USP46 (UniProt P62068)
inactive: [1] 0.021 | [2] -0.121

UQCC3 (UniProt Q6UW78)
inactive: [1] -0.01 | [2] 0.025 | [3] 0.26 | [4] -0.022 | [5] -0.451

UIMC1 (UniProt Q96RL1)
inactive: [1] -0.003 | [2] 0.001 | [3] 0.039 | [4] -0.022 | [5] -0.068

URGCP (UniProt Q8TCY9)
inactive: [1] 0.003 | [2] 0.036 | [3] 0.044 | [4] 0.047

USP42 (UniProt Q9H9J4)
inactive: [1] -0.012 | [2] 0.072

ULBP2 (UniProt Q9BZM5)
inactive: [1] 0.025 | [2] -0.043 | [3] 0.087 | [4] -0.043 | [5] -0.089

VARS2, A0A0G2JL52
inactive: [1] 0.01 | [2] 0.023 | [3] 0.041 | [4] 0.005 | [5] -0.023

USP28 isoform 2 (UniProt Q96RU2)
inactive: [1] -0.032 | [2] 0.003 | [3] 0.019 | [4] 0.028 | [5] -0.009

UHRF1BP1 (UniProt Q6BDS2)
inactive: [1] -0.001 | [2] 0.038 | [3] -0.008 | [4] 0.032 | [5] -0.01

UNC45A (UniProt Q9H3U1)
inactive: [1] -0.036 | [2] -0.011 | [3] 0.036 | [4] 0.004 | [5] 0.039

UCK2 (UniProt Q9BZX2)
inactive: [1] 0.03 | [2] -0.013 | [3] -0.062 | [4] 0.021 | [5] -0.05

VANGL1 (UniProt Q8TAA9)
inactive: [1] 0.064 | [2] 0.088 | [3] -0.055 | [4] -0.004 | [5] -0.076

UCKL1 (UniProt Q9NWZ5)
inactive: [1] 0.016 | [2] 0.01 | [3] 0.003 | [4] 0.056 | [5] -0.034

USF1 (UniProt P22415)
inactive: [1] -0.024 | [2] 0.037 | [3] 0.016 | [4] 0.002 | [5] -0.053

UFSP2 (UniProt Q9NUQ7)
inactive: [1] 0.059 | [2] 0 | [3] 0.057 | [4] -0.04 | [5] 0.022

VDAC2 isoform 2 (UniProt P45880)
inactive: [1] 0.017 | [2] -0.002 | [3] -0.006 | [4] -0.017 | [5] -0.01

UQCRH (UniProt P07919)
inactive: [1] -0.012 | [2] -0.069 | [3] 0.001 | [4] -0.026 | [5] -0.011

UQCRQ (UniProt O14949)
inactive: [1] 0.019 | [2] 0 | [3] -0.007 | [4] 0.033 | [5] -0.012

UNC13D (UniProt Q70J99)
inactive: [1] -0.032 | [2] 0.067 | [3] 0.044 | [4] 0.025 | [5] 0.024

UPF3B (UniProt Q9BZI7)
inactive: [1] 0.031 | [2] -0.008 | [3] -0.043 | [4] 0.022 | [5] -0.097

VDAC2 (UniProt Q5JSD1)
inactive: [1] 0.078 | [2] -0.067 | [3] -0.071 | [4] -0.071 | [5] -0.065

VEZF1 (UniProt Q14119)
inactive: [1] 0.107 | [2] -0.049 | [3] 0.016 | [4] 0.03 | [5] -0.027

USE1 (UniProt Q9NZ43)
inactive: [1] 0.006 | [2] 0.008 | [3] -0.119 | [4] -0.109 | [5] -0.002

USF2 (UniProt Q15853)
inactive: [1] -0.027 | [2] 0.007 | [3] 0.039 | [4] 0.03 | [5] -0.04

USO1 isoform 2 (UniProt O60763)
inactive: [1] 0.005 | [2] 0.005 | [3] 0.004 | [4] 0.004 | [5] 0.009

VAC14 (UniProt Q08AM6)
inactive: [1] -0.008 | [2] -0.008 | [3] 0.042 | [4] -0.012 | [5] 0.001

UXT isoform 2 (UniProt Q9UBK9)
inactive: [1] 0.033 | [2] 0.026 | [3] 0.008 | [4] -0.053 | [5] -0.071

VIM (UniProt P08670)
inactive: [1] 0.001 | [2] -0.028 | [3] -0.01 | [4] 0.007 | [5] 0.073

VAMP2 (UniProt P63027)
inactive: [1] -0.045 | [2] -0.053 | [3] -0.024 | [4] 0.014 | [5] 0.081

VDAC1 (UniProt P21796)
inactive: [1] -0.01 | [2] 0.024 | [3] -0.015 | [4] -0.016 | [5] 0.023
